# Test results published in US20230364032A1, “USE OF 2-HOBA TO TREAT ATHEROSCLEROSIS” (Vanderbilt University, priority 2020, published 2023).
# “Also recorded” adds a separate entry of the source.
# Assay: Plasma lipids and lipoprotein distribution
# Assay type: in vivo, mouse
compound,measurement,setting,value
"NCc1ccccc1O [2-HOBA, 2-hydroxybenzylamine]",plasma total cholesterol and triglyceride levels,"female Ldlr−/− mice, western diet 16 weeks, vs vehicle or 4-HOBA",absence of changes; also recorded: not significantly different
same,plasma total cholesterol levels,"male Ldlr−/− mice, 1 g/L, vs water",did not affect; also recorded: does not affect
